# PubChem BioAssay AID1224830, NIAID – 2016
# Aim: 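Genes whose knock-down alters the TNF-alpha reporter response to LPS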 (primary screen)
# System: human THP-1 monocytic leukaemia cells, TNF dual-luciferase reporter clone, PMA-differentiated to macrophage-like cells
# Reagent: siRNA pool against human genes, 50 nM
# Timing: LPS for 4 h, given about 3 days after siRNA transfection
# Treatment: bacterial LPS (TLR4 ligand), 10 ng/ml
# Measured: 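TNF firefly reporter luminescence divided by renilla, normalised to the plate median, then turned into a robust z-score for each replicate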
# Reading the numbers: TNF reporter robust z-score: higher = stronger TNF reporter response to LPS
# Rule for the call: 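Each well counts as active if its z-score is over 2.8 or under -1.5; controls are left without a call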
# The whole screen tested about 18,000 reagents; shown is a part drawn at random. About 2,900 of all reagents (16%) count as active. 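Calls are made per well; low scores hint the gene aids the LPS response, high scores that it dampens it.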 Repeated entries: four replicate wells of each siRNA pool. Reagent sequences are not shown.
The opening 8 records, to show the layout:
TNF reporter robust z-score,Call,target
-1.14,inactive,CYB561 (cytochrome b561)
-0.14,inactive,CYB561 (cytochrome b561)
0.05,inactive,CYB561 (cytochrome b561)
-0.78,inactive,CYB561 (cytochrome b561)
3.84,active,AFAP1L2 (actin filament associated protein 1 like 2)
2.93,active,AFAP1L2 (actin filament associated protein 1 like 2)
-0.62,inactive,AFAP1L2 (actin filament associated protein 1 like 2)
0.26,inactive,AFAP1L2 (actin filament associated protein 1 like 2)

Results, from the first entry:
TNF reporter robust z-score,Call,target
-1.14,inactive,CYB561 (cytochrome b561)
-0.14,inactive,CYB561 (cytochrome b561)
0.05,inactive,CYB561 (cytochrome b561)
-0.78,inactive,CYB561 (cytochrome b561)
3.84,active,AFAP1L2 (actin filament associated protein 1 like 2)
2.93,active,AFAP1L2 (actin filament associated protein 1 like 2)
-0.62,inactive,AFAP1L2 (actin filament associated protein 1 like 2)
0.26,inactive,AFAP1L2 (actin filament associated protein 1 like 2)
-1.44,inactive,MYF6 (myogenic factor 6)
-0.79,inactive,MYF6 (myogenic factor 6)
-0.6,inactive,MYF6 (myogenic factor 6)
-0.61,inactive,MYF6 (myogenic factor 6)
0.63,inactive,UAP1 (UDP-N-acetylglucosamine pyrophosphorylase 1)
-0.69,inactive,UAP1 (UDP-N-acetylglucosamine pyrophosphorylase 1)
-0.04,inactive,UAP1 (UDP-N-acetylglucosamine pyrophosphorylase 1)
-0.94,inactive,UAP1 (UDP-N-acetylglucosamine pyrophosphorylase 1)
0.59,inactive,TUB (TUB bipartite transcription factor)
1.62,inactive,TUB (TUB bipartite transcription factor)
0.82,inactive,TUB (TUB bipartite transcription factor)
0.73,inactive,TUB (TUB bipartite transcription factor)
-1.18,inactive,"ZNF598 (zinc finger protein 598, E3 ubiquitin ligase)"
-0.96,inactive,"ZNF598 (zinc finger protein 598, E3 ubiquitin ligase)"
-1.21,inactive,"ZNF598 (zinc finger protein 598, E3 ubiquitin ligase)"
-0.64,inactive,"ZNF598 (zinc finger protein 598, E3 ubiquitin ligase)"
0.16,inactive,PRAP1 (proline rich acidic protein 1)
-0.13,inactive,PRAP1 (proline rich acidic protein 1)
-0.04,inactive,PRAP1 (proline rich acidic protein 1)
-1.29,inactive,PRAP1 (proline rich acidic protein 1)
0.37,inactive,RPGR (retinitis pigmentosa GTPase regulator)
0.49,inactive,RPGR (retinitis pigmentosa GTPase regulator)
-0.55,inactive,RPGR (retinitis pigmentosa GTPase regulator)
-0.39,inactive,RPGR (retinitis pigmentosa GTPase regulator)
0.28,inactive,TRAPPC12 (trafficking protein particle complex subunit 12)
0.6,inactive,TRAPPC12 (trafficking protein particle complex subunit 12)
-0.27,inactive,TRAPPC12 (trafficking protein particle complex subunit 12)
-0.21,inactive,TRAPPC12 (trafficking protein particle complex subunit 12)
0.62,inactive,CHPF2 (chondroitin polymerizing factor 2)
0.39,inactive,CHPF2 (chondroitin polymerizing factor 2)
1.29,inactive,CHPF2 (chondroitin polymerizing factor 2)
0.49,inactive,CHPF2 (chondroitin polymerizing factor 2)
-0.49,inactive,MAML1 (mastermind like transcriptional coactivator 1)
-0.12,inactive,MAML1 (mastermind like transcriptional coactivator 1)
-0.32,inactive,MAML1 (mastermind like transcriptional coactivator 1)
-0.02,inactive,MAML1 (mastermind like transcriptional coactivator 1)
-1.29,inactive,DROSHA (drosha ribonuclease III)
-0.1,inactive,DROSHA (drosha ribonuclease III)
-0.16,inactive,DROSHA (drosha ribonuclease III)
-0.71,inactive,DROSHA (drosha ribonuclease III)
0.23,inactive,SPC25 (SPC25 component of NDC80 kinetochore complex)
1.29,inactive,SPC25 (SPC25 component of NDC80 kinetochore complex)
2.13,inactive,SPC25 (SPC25 component of NDC80 kinetochore complex)
1.36,inactive,SPC25 (SPC25 component of NDC80 kinetochore complex)
-1.08,inactive,GPR174 (G protein-coupled receptor 174)
-0.66,inactive,GPR174 (G protein-coupled receptor 174)
-0.83,inactive,GPR174 (G protein-coupled receptor 174)
-0.73,inactive,GPR174 (G protein-coupled receptor 174)
-0.34,inactive,CNOT7 (CCR4-NOT transcription complex subunit 7)
0,inactive,CNOT7 (CCR4-NOT transcription complex subunit 7)
-0.74,inactive,CNOT7 (CCR4-NOT transcription complex subunit 7)
-0.05,inactive,CNOT7 (CCR4-NOT transcription complex subunit 7)
-0.41,inactive,R3HCC1L (R3H domain and coiled-coil containing 1 like)
0.79,inactive,R3HCC1L (R3H domain and coiled-coil containing 1 like)
0.57,inactive,R3HCC1L (R3H domain and coiled-coil containing 1 like)
1.1,inactive,R3HCC1L (R3H domain and coiled-coil containing 1 like)
2.41,inactive,ARL14EP (ARF like GTPase 14 effector protein)
2.76,inactive,ARL14EP (ARF like GTPase 14 effector protein)
1.84,inactive,ARL14EP (ARF like GTPase 14 effector protein)
4.65,active,ARL14EP (ARF like GTPase 14 effector protein)
-0.04,inactive,DPPA4 (developmental pluripotency associated 4)
0.84,inactive,DPPA4 (developmental pluripotency associated 4)
0.87,inactive,DPPA4 (developmental pluripotency associated 4)
0.97,inactive,DPPA4 (developmental pluripotency associated 4)
-0.2,inactive,LIPM (lipase family member M)
-1.01,inactive,LIPM (lipase family member M)
-1.07,inactive,LIPM (lipase family member M)
0.02,inactive,LIPM (lipase family member M)
-1.05,inactive,DCLRE1A (DNA cross-link repair 1A)
0.54,inactive,DCLRE1A (DNA cross-link repair 1A)
0.04,inactive,DCLRE1A (DNA cross-link repair 1A)
-0.53,inactive,DCLRE1A (DNA cross-link repair 1A)
0.3,inactive,RPS24 (ribosomal protein S24)
0.73,inactive,RPS24 (ribosomal protein S24)
0.66,inactive,RPS24 (ribosomal protein S24)
0.8,inactive,RPS24 (ribosomal protein S24)
0.81,inactive,CYP26C1 (cytochrome P450 family 26 subfamily C member 1)
0.91,inactive,CYP26C1 (cytochrome P450 family 26 subfamily C member 1)
0.87,inactive,CYP26C1 (cytochrome P450 family 26 subfamily C member 1)
0.65,inactive,CYP26C1 (cytochrome P450 family 26 subfamily C member 1)
2.26,inactive,MEX3B (mex-3 RNA binding family member B)
1.69,inactive,MEX3B (mex-3 RNA binding family member B)
1.15,inactive,MEX3B (mex-3 RNA binding family member B)
1.94,inactive,MEX3B (mex-3 RNA binding family member B)
0.17,inactive,"MYCN (MYCN proto-oncogene, bHLH transcription factor)"
0,inactive,"MYCN (MYCN proto-oncogene, bHLH transcription factor)"
-0.23,inactive,"MYCN (MYCN proto-oncogene, bHLH transcription factor)"
-0.21,inactive,"MYCN (MYCN proto-oncogene, bHLH transcription factor)"
0.54,inactive,CGB1 (chorionic gonadotropin subunit beta 1)
0.17,inactive,CGB1 (chorionic gonadotropin subunit beta 1)
0,inactive,CGB1 (chorionic gonadotropin subunit beta 1)
0.12,inactive,CGB1 (chorionic gonadotropin subunit beta 1)
1.19,inactive,LINGO2 (leucine rich repeat and Ig domain containing 2)
-0.32,inactive,LINGO2 (leucine rich repeat and Ig domain containing 2)
1.38,inactive,LINGO2 (leucine rich repeat and Ig domain containing 2)
0.47,inactive,LINGO2 (leucine rich repeat and Ig domain containing 2)
0.02,inactive,EEIG1 (estrogen-induced osteoclastogenesis regulator 1)
0.11,inactive,EEIG1 (estrogen-induced osteoclastogenesis regulator 1)
-0.05,inactive,EEIG1 (estrogen-induced osteoclastogenesis regulator 1)
1.55,inactive,EEIG1 (estrogen-induced osteoclastogenesis regulator 1)
-1.05,inactive,ALPK1 (alpha kinase 1)
-0.32,inactive,ALPK1 (alpha kinase 1)
-0.3,inactive,ALPK1 (alpha kinase 1)
1.16,inactive,ALPK1 (alpha kinase 1)
-1.13,inactive,ALCAM (activated leukocyte cell adhesion molecule)
-0.89,inactive,ALCAM (activated leukocyte cell adhesion molecule)
-1.35,inactive,ALCAM (activated leukocyte cell adhesion molecule)
-1.73,active,ALCAM (activated leukocyte cell adhesion molecule)
1.71,inactive,MPHOSPH10 (M-phase phosphoprotein 10)
-0.78,inactive,MPHOSPH10 (M-phase phosphoprotein 10)
-0.99,inactive,MPHOSPH10 (M-phase phosphoprotein 10)
0.99,inactive,MPHOSPH10 (M-phase phosphoprotein 10)
3.36,active,ZCCHC9 (zinc finger CCHC-type containing 9)
2.49,inactive,ZCCHC9 (zinc finger CCHC-type containing 9)
3.28,active,ZCCHC9 (zinc finger CCHC-type containing 9)
0.69,inactive,ZCCHC9 (zinc finger CCHC-type containing 9)
-0.38,inactive,BCL2L2 (BCL2 like 2)
-0.36,inactive,BCL2L2 (BCL2 like 2)
1.01,inactive,BCL2L2 (BCL2 like 2)
0.51,inactive,BCL2L2 (BCL2 like 2)
0.5,inactive,PJVK (pejvakin)
0.6,inactive,PJVK (pejvakin)
-0.36,inactive,PJVK (pejvakin)
0.73,inactive,PJVK (pejvakin)
-0.57,inactive,ILDR1 (immunoglobulin like domain containing receptor 1)
1.3,inactive,ILDR1 (immunoglobulin like domain containing receptor 1)
0.19,inactive,ILDR1 (immunoglobulin like domain containing receptor 1)
0.63,inactive,ILDR1 (immunoglobulin like domain containing receptor 1)
0.36,inactive,VPS51 (VPS51 subunit of GARP complex)
0.29,inactive,VPS51 (VPS51 subunit of GARP complex)
0.47,inactive,VPS51 (VPS51 subunit of GARP complex)
-0.2,inactive,VPS51 (VPS51 subunit of GARP complex)
